# Experimental data: PubChem BioAssay AID328 (DTP/NCI, 2004)
# The list shows only some results of the screen, not a fair sample: it gathers tests that were run many times, whatever their T/C, doses with no T/C, and many T/C values between a quarter and a half above the control. Further doses and runs are listed elsewhere. T/C is the treated group as % of the vehicle group. Some entries give survivors of the animals treated and no T/C: the source holds a T/C of zero for them, seemingly a mark for toxic or unscored doses. Some doses without a T/C left all or most animals alive at the check, yet need not have been tolerated: survival well below the control is almost never listed, so the zero probably covers shortened survival too. Counts of survivors are from the toxicity check (mostly the fifth day) where no day follows; animals may have died later. Schedules are NCI's codes, read here as Q, the interval in days (D) or hours (H), X, the number of doses. For survival time, the PubChem record calls one and a half times the control and up active, and a quarter to a half above the control has no call in these data; cut-offs in other NCI protocols can differ. Some T/C values carry the count of animals alive at the toxicity check (mostly the fifth day); without a count, all were alive then. Some entries were tested several times; the results are listed from low to high. Brackets with × count equal records among those shown.
# Tested on: BDF1 mice, P388 leukemia ip, median survival T/C
# Experiment: NCI In Vivo Anticancer Drug Screen. Data for tumor model P388 Leukemia (intraperitoneal) in B6D2F1 (BDF1) mice
# Details: T/C endpoint: median survival time, higher T/C = longer survival
# Outline: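 Mice carrying the transplantable tumour receive compound or vehicle. Survival is followed in each arm, and the treated measure is divided by the vehicle measure.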
structure (smiles),measurement,setting,value
CCCCCCCCCCCCCCCC(=O)OCC1OC(n2ccc(N)nc2=O)C(O)C1O (configuration not stated),T/C,"dose: 0.75 mg/kg/injection, schedule: Q04DX003 (ip), vehicle: saline with Tween-80",136 % of control
same,T/C,"dose: 1.32 mg/kg/injection, schedule: Q04DX003 (ip), vehicle: saline with Tween-80",127 % of control
same,T/C,"dose: 6.25 mg/kg/injection, schedule: Q01DX005 (ip), vehicle: Klucel (hydroxypropylcellulose) (HPC), evaluated on day 30","121, 125 [5 of 6 alive], 134, 144, 158 (3×), 161, 169 (2×), 170, 173, 175, 178, 186, 188, 190, 192, 196, 200, 202, 203, 204, 207, 211, 213, 218, 219, 225, 235, 261 % of control"
same,T/C,"dose: 6.25 mg/kg/injection, schedule: Q01DX005 (ip), vehicle: Klucel (hydroxypropylcellulose) (HPC), evaluated on day 35",155 and 167 % of control
same,T/C,"dose: 6.25 mg/kg/injection, schedule: Q01DX009 (ip), vehicle: Klucel (hydroxypropylcellulose) (HPC), evaluated on day 30","128, 149, 156, 169, 186, 189, 194, 197 (2×), 199, 200, 201, 204, 205, 206, 207 (3×), 211, 217 (2×), 219, 220, 223, 229 (2×), 235 (2×), 238, 247, 250 (2×), 255, 258, 263 % of control"
same,T/C,"dose: 6.25 mg/kg/injection, schedule: Q01DX009 (ip), vehicle: Klucel (hydroxypropylcellulose) (HPC), evaluated on day 35",180 % of control
same,T/C,"dose: 12.5 mg/kg/injection, schedule: Q01DX005 (ip), vehicle: Klucel (hydroxypropylcellulose) (HPC), evaluated on day 30","141, 146, 158, 171, 177 [2 of 3 alive], 183, 193, 195 [1 of 1 alive], 201 (2×), 204, 206, 207, 210, 223, 224, 227 (2×), 228, 231 (2×), 235, 237 (2×), 239, 241, 246, 255, 262, 266, 275 % of control"
same,T/C,"dose: 12.5 mg/kg/injection, schedule: Q01DX005 (ip), vehicle: Klucel (hydroxypropylcellulose) (HPC), evaluated on day 35",189 and 209 % of control
same,T/C,"dose: 12.5 mg/kg/injection, schedule: Q01DX009 (ip), vehicle: Klucel (hydroxypropylcellulose) (HPC), evaluated on day 30","171, 178, 181, 193, 197 (2×), 210, 216, 219, 221, 223, 230, 233, 235, 236, 237, 245 (2×), 247, 250, 252, 256, 260 (2×), 263, 266, 267 (2×), 271, 275, 277, 280, 287, 291, 292 % of control"
same,T/C,"dose: 12.5 mg/kg/injection, schedule: Q01DX009 (ip), vehicle: Klucel (hydroxypropylcellulose) (HPC), evaluated on day 35",247 % of control [5 of 6 alive]
same,T/C,"dose: 18.75 mg/kg/injection, schedule: Q04DX002 (ip), vehicle: Klucel (hydroxypropylcellulose) (HPC), evaluated on day 30","126, 150, 157 [5 of 6 alive], 166 (2×), 167, 170, 176, 180, 182, 186, 190, 194, 196, 199, 204, 211 (2×), 216, 219, 224, 225, 226, 228, 236, 241, 247, 267 % of control"
same,T/C,"dose: 18.75 mg/kg/injection, schedule: Q04DX002 (ip), vehicle: Klucel (hydroxypropylcellulose) (HPC), evaluated on day 35",164 % of control
same,survivor count,"dose: 18.75 mg/kg/injection, schedule: Q04DX002 (ip), vehicle: Klucel (hydroxypropylcellulose) (HPC)",3 of 3
same,T/C,"dose: 18.75 mg/kg/injection, schedule: Q04DX003 (ip), vehicle: Klucel (hydroxypropylcellulose) (HPC), evaluated on day 30","145, 160, 172, 175, 192, 193, 198, 200, 204, 207, 211, 225, 228, 229, 230, 238 (2×), 239, 241, 245, 251, 252, 254, 255, 256, 260, 265, 266, 268, 271, 280 % of control"
same,T/C,"dose: 18.75 mg/kg/injection, schedule: Q04DX003 (ip), vehicle: Klucel (hydroxypropylcellulose) (HPC), evaluated on day 35",245 % of control
same,T/C,"dose: 25.0 mg/kg/injection, schedule: Q01DX005 (ip), vehicle: Klucel (hydroxypropylcellulose) (HPC), evaluated on day 30","109, 136, 140, 143, 165, 200, 202, 217, 219, 225, 228 [5 of 6 alive], 235, 236, 240 (2×), 243, 245, 250 (2×), 252, 254, 260 (2×), 264 [5 of 6 alive], 266, 271 [2 of 3 alive], 275 (2×), 279, 290 [5 of 6 alive], 294 % of control"
same,T/C,"dose: 25.0 mg/kg/injection, schedule: Q01DX005 (ip), vehicle: Klucel (hydroxypropylcellulose) (HPC), evaluated on day 35",222 [2 of 3 alive] and 256 % of control
same,T/C,"dose: 25.0 mg/kg/injection, schedule: Q01DX009 (ip), vehicle: Klucel (hydroxypropylcellulose) (HPC), evaluated on day 30","171 [2 of 3 alive], 199, 210, 228, 245, 247 (2×), 251, 256 (2×), 258, 260, 262 (2×), 263 (3×), 267 (2×), 274, 275 (2×), 275 [5 of 6 alive], 277, 280, 282, 283, 285 (2×), 291 (2×), 293, 300, 306 % of control"
same,T/C,"dose: 25.0 mg/kg/injection, schedule: Q01DX009 (ip), vehicle: Klucel (hydroxypropylcellulose) (HPC), evaluated on day 35",320 % of control
same,survivor count,"dose: 25.0 mg/kg/injection, schedule: Q01DX009 (ip), vehicle: Klucel (hydroxypropylcellulose) (HPC)",1 of 3
same,T/C,"dose: 31.25 mg/kg/injection, schedule: Q01DX001 (ip), vehicle: Klucel (hydroxypropylcellulose) (HPC)","165, 180, 204, 208, 219, 234, 236 % of control"
same,T/C,"dose: 31.75 mg/kg/injection, schedule: Q01DX001 (ip), vehicle: Klucel (hydroxypropylcellulose) (HPC)","100, 100 [2 of 3 alive], 105, 106, 111, 158, 163 (2×), 168, 174, 176 (2×), 181, 196, 211, 215, 216, 223, 225, 226, 250, 261 % of control"
same,T/C,"dose: 33.0 mg/kg/injection, schedule: Q01DX009 (ip), vehicle: saline with Tween-80",131 % of control
same,T/C,"dose: 37.5 mg/kg/injection, schedule: Q04DX002 (ip), vehicle: Klucel (hydroxypropylcellulose) (HPC), evaluated on day 30","170, 175, 193, 194, 195, 196, 202, 202 [2 of 3 alive], 203, 204, 205, 208, 219, 220, 230, 236, 239, 240, 241, 245, 253, 256, 258 (2×), 265 (2×), 269, 286 % of control"
same,T/C,"dose: 37.5 mg/kg/injection, schedule: Q04DX002 (ip), vehicle: Klucel (hydroxypropylcellulose) (HPC), evaluated on day 35",213 % of control
same,survivor count,"dose: 37.5 mg/kg/injection, schedule: Q04DX002 (ip), vehicle: Klucel (hydroxypropylcellulose) (HPC)",3 of 3
same,T/C,"dose: 37.5 mg/kg/injection, schedule: Q04DX003 (ip), vehicle: Klucel (hydroxypropylcellulose) (HPC), evaluated on day 30","170, 181, 182, 189, 193, 212, 214 (2×), 216, 225, 235, 237, 243, 245, 253, 255, 256 (2×), 260 (2×), 263, 265, 267, 270, 272, 274, 275, 277, 285 (2×), 297 % of control"
same,T/C,"dose: 37.5 mg/kg/injection, schedule: Q04DX003 (ip), vehicle: Klucel (hydroxypropylcellulose) (HPC), evaluated on day 35",282 % of control
same,T/C,"dose: 40.0 mg/kg/injection, schedule: Q04DX003 (ip), vehicle: saline with Tween-80, evaluated on day 5","198, 225, 306 % of control"
same,T/C,"dose: 40.0 mg/kg/injection, schedule: Q04DX003 (ip), vehicle: saline with Tween-80, evaluated on day 60",198 and 306 % of control
same,T/C,"dose: 50.0 mg/kg/injection, schedule: Q01DX005 (ip), vehicle: Klucel (hydroxypropylcellulose) (HPC), evaluated on day 30","87, 94, 125, 126, 132, 140, 161, 169, 182, 225, 230, 235, 236, 243, 244, 250, 251, 258, 264, 270, 272, 274, 275, 277, 280, 282, 283, 285, 296 % of control"
same,T/C,"dose: 50.0 mg/kg/injection, schedule: Q01DX005 (ip), vehicle: Klucel (hydroxypropylcellulose) (HPC), evaluated on day 35",247 and 294 % of control
